Assay results: patent US6919043B2, “Method of sterilization for container, apparatus using therefor and heat treatment for container” (Dai Nippon Printing Co., Ltd., priority 2002, dated 2005)
Where two headings read alike, the source gives them in different places.

Details: rinsing 3 sec, 500 ml PET bottle

`OO` [hydrogen peroxide] gave a Residual concentration (Condition 1: preheating 50 °C, mist 35 μl, leaving 3.5 sec, hot blast Yes, standing 1.0 sec) of 0.8 ppm, a Residual concentration (Condition 2: preheating 50 °C, mist 25 μl, leaving 3.5 sec, hot blast Yes, standing 1.0 sec) of 0.5 ppm and a Residual concentration (Condition 3: preheating 50 °C (neck portion not heated from the outside), mist 20 μl, leaving 3.5 sec, hot blast Yes, standing 1.0 sec) of 0.4 ppm. The Residual concentration (Condition 4: preheating 50 °C, mist 15 μl, leaving 3.5 sec, hot blast Yes, standing 1.0 sec) was 0.3 ppm, the Residual concentration (Condition 5: preheating 50 °C (neck portion heated from the exterior), mist 20 μl, leaving 3.5 sec, hot blast Yes, standing 1.0 sec) was 0.4 ppm and the Residual concentration (Condition 6: preheating No, mist 40 μl, leaving 3.5 sec, hot blast Yes, standing 1.0 sec) was 0.5 ppm. For the same compound, the Residual concentration (Condition 7: preheating No, mist 20 μl, leaving 3.5 sec, hot blast Yes, standing 1.0 sec) was 0.2 ppm, the Residual concentration (Condition 8: preheating 50 °C, mist 30 μl, leaving 0.5 sec, hot blast Yes, standing 3.5 sec) was 0.5 ppm and the Residual concentration (Condition 9: preheating 50 °C, mist 20 μl, leaving 0.5 sec, hot blast Yes, standing 3.5 sec) was 0.2 ppm. The Residual concentration (Condition 10: preheating 50 °C, mist 20 μl, leaving 3.5 sec, hot blast No, standing 1.0 sec) was 0.6 ppm and the Residual concentration (Condition 11: preheating 50 °C, mist 15 μl, leaving 3.5 sec, hot blast No, standing 1.0 sec) was 0.5 ppm.
